# In paper PMC12040169 (PLOS Biology, 2025):
# Some of the results follow.
# Tested on: T1, CTL2-GFP (C. trachomatis L2/434/Bu, GFP-expressing)
# T1 construct: L2/434/Bu, GFP-expressing
# Design: species or system HeLa; Intracellular C. trachomatis growth in HeLa cells, bulk GFP fluorescence relative to DMSO
# Settings: bulk GFP, single well; 28.5 h, 10 µM; inhibitor
row,SMILES,% of control remaining
1,Cc1ccc(C(=O)NCc2cccnc2)c(N2CCN(C(=O)c3ccco3)CC2)n1 [CBK076444],126.411%
2,CC1=CC(c2ccccc2)N2N=C(NC(=O)CCCC(=O)O)NC2=N1 (stereo not drawn) [CBK287037],128.98%
3,Cc1cc(Br)cc(C)c1OCCNCCN(C)C [CBK267808G],86.0766%
4,O=C(c1ccc2ncccc2c1)N1CCc2ccccc21 [CBK200403],157.781%
5,CCC(CC)C(=O)N1CCC(CNc2cnc(-c3ccc(S(C)(=O)=O)cc3)cn2)CC1 [CBK172021],74.9921%
6,FC(F)(F)c1nc2ccccc2nc1SCCc1ccccc1 [CBK107204],100%
7,O=C1CC(NCc2ccc3c(c2)OCO3)C(=O)N1c1ccc(OC(F)(F)Cl)cc1 (stereo not drawn) [CBK074357],103.811%
8,O=C(C1CC1)N1CCCC(c2nc(-c3cccs3)no2)C1 (stereo not drawn) [CBK281944],147.778%
9,Cc1nnnn1-c1ccc(CC(=O)N2CCc3sccc3C2c2ccccc2)cc1 (stereo not drawn) [CBK285567],117.519%
10,COc1ccccc1-c1nn2c(Cn3cnc4ccccc43)nnc2s1 [CBK268218],126.923%
11,COCCn1cc(C(=O)N2CCN3CCCCC3C2)c2ccccc21 (stereo not drawn) [CBK305287],126.714%
12,COCCN(CCOC)C(=O)Nc1ccc(F)c(NC(C)=O)c1 [CBK307705],120.509%
13,C[C@@H](Cn1c(C(F)(F)F)cc2cccnc21)NC(=O)C1CCC1 [CBK283230],129.395%
14,COc1ccc(-c2nc(-c3ccoc3)cnc2N)cc1OC [CBK063964],191.34%
15,Cc1occc1-c1nnc(SCC(=O)Nc2cccc3nsnc23)o1 [CBK268979],125.333%
16,COc1ccccc1-c1nc(C2CCCN2C(=O)N[C@@H](C)c2ccccc2)n2ccccc12 (stereo partly drawn) [CBK046625],93.504%
17,CN1CCN(c2ccc(NC(=O)c3cccc(Br)c3)cc2)CC1 [CBK266140],142.115%
18,CCn1c(SCC(=O)N2c3ccccc3Sc3ccccc32)nnc1C(C)Oc1ccccc1 (stereo not drawn) [CBK266290],191.191%
19,CSc1nc2ccc(NS(=O)(=O)c3ccc(Cl)c(C(=O)O)c3)cc2s1 [CBK297541],143.631%
20,S=C(NCc1cccs1)NC1CC1 [CBK008520],135.401%
21,Cc1ccc2[nH]c3c(c2c1)CCNCC3 [CBK004811],114.694%
22,COC(=O)c1cccn2cc(CN3CCSC(C)C3)nc12 (stereo not drawn) [CBK304958],108.283%
23,CSCCC(NS(=O)(=O)c1ccc(I)cc1)C(=O)O (stereo not drawn) [CBK268768],174.927%
24,CN1CCN(C(=O)c2ccc(-c3ccccc3)nc2N(C)C)CC1 [CBK106115],100%
25,Cc1ccc(CN(CCCn2ccnc2)Cc2cccnc2)o1 [CBK283100],136.6%
26,O=C(O)C(CCO)Sc1nnc(Nc2ccc(Oc3ccccc3)cc2)s1 (stereo not drawn) [CBK296631],150.881%

row,SMILES,% of control remaining
1,O=[N+]([O-])c1ccc(-c2ccc(/C=C/c3cc(O)c4ccccc4n3)o2)cc1 [CBK267792],104.377%
2,CC(C)(C)c1ccc(S(=O)(=O)N2CCCC[C@H]2CCOC(=O)/C=C\C(=O)O)cc1 [CBK200069],106.941%
3,CCc1nn(CC(=O)NC2CCCC2)c(=O)c2cc3ccsc3n12 [CBK284134],125.274%
4,Cc1cccc(Nc2ccc(C3CCCCN3Cc3ccc4nccnc4c3)cn2)n1 (stereo not drawn) [CBK285536],109.541%
5,CC(C)N(C)C1CCN(S(=O)(=O)c2cccc([N+](=O)[O-])c2)CC1 [CBK294462],140.86%
6,O=C(O)c1cccc(S(=O)(=O)Nc2nc3ccccc3s2)c1 [CBK161138],91.9554%
7,CNC(=S)N(Cc1ccc(S(N)(=O)=O)cc1)C1CC(=O)N(c2ccc(OC)cc2)C1=O (stereo not drawn) [CBK262940],101.268%
8,Cc1oc(C(C)(C)C)cc1C(=O)Nc1ccc(C(F)(F)F)cc1 [CBK057251],127.24%
9,CC(=O)N1CCCN(Cc2c(C(C)C)[nH]c3ncccc23)CC1 [CBK285333],123.324%
10,CC(C)(CNC(=O)Cn1cc(C(=O)Nc2ccc(F)cc2)ccc1=O)c1cccc(F)c1 [CBK286079],117.131%
11,NS(=O)(=O)c1ccc(CNC(=O)c2cc(-c3cccc(Cl)c3)nc3ccccc23)cc1 [CBK267774],136.795%
12,CN(Cc1ccccc1)Cc1nc2c([nH]1)c(=O)[nH]c(=O)n2C [CBK269442],81.0223%
13,O=C(NCCN1CCOCC1)c1cc(-c2ccc(Cl)cc2)nc2ccccc12 [CBK262650],113.781%
14,COC(=O)c1c(NC(=S)Nc2cn(C)nc2C(N)=O)sc2c1CCCCC2 [CBK266849],119.703%
15,CS(=O)(=O)NC1CCCN(c2ncnc3ccccc23)C1 (stereo not drawn) [CBK305619],100.461%
16,CN1CCN(CC(=O)Nc2ccc(Cl)cc2C(=O)c2ccccc2)CC1 [CBK266246],140.43%
17,Cc1c(C(=O)NCCCCn2ccnc2)[nH]c2ccccc12 [CBK283246],107.216%
18,CCN1CCOC(CNc2nc(-c3ccncc3)nc3c2CCC3)C1 (stereo not drawn) [CBK306215],86.3228%
19,Cc1nonc1NC(=O)CN1CCCC1 [CBK261840],109.329%
20,CC(C)(C)c1cc(C(=O)Nc2ccncc2)n(Cc2ccc(Cl)cc2Cl)n1 [CBK107284],26.5354%
21,Cc1ccc(Cl)c(NC(=O)NCCN2CCN(c3ccccc3[N+](=O)[O-])CC2)c1 [CBK267293],133.194%
22,CCOC(=O)CN1CCN(c2nccnc2OCCN2CCOCC2)CC1 [CBK082897],103.416%
23,c1ccc2c(c1)OCC(c1nn3c(-c4ccncc4)nnc3s1)O2 (stereo not drawn) [CBK288560],114.739%
24,CC(=O)c1ccc(-c2ccc(C(=O)N3CCN(C)CC3)c(N3CCOCC3)n2)s1 [CBK106181],154.189%
25,COCc1cn(C[C@H]2CC3CCN2C[C@@H]3C(=O)NC(C)C)nn1 (stereo partly drawn) [CBK288733],126.127%

# Structures above containing bromine:
row,SMILES,% of control remaining
3,Cc1cc(Br)cc(C)c1OCCNCCN(C)C [CBK267808G],86.0766%
17,CN1CCN(c2ccc(NC(=O)c3cccc(Br)c3)cc2)CC1 [CBK266140],142.115%
